Experimental data from patent publication US20240199685 (published 2024).

Assay: general procedure: Fmoc solid-phase peptide synthesis; Fmoc-Rink Amide AM Resin, substitution 0.35 mmol/g
Details: whole synthesis
[1] = scale of the general procedure 230 grams of resin, run 1
[2] = scale of the general procedure 230 grams of resin, run 2

setmelanotide
crude purity (method not given) (scale 1 mmol): 86.9%
crude purity (method not given) [1]: greater than 85%
crude yield [1]: about 20%
crude purity (method not given) [2]: greater than 80%
crude yield [2]: 37-41%
crude purity (method not given) (scale of the general procedure 230 grams of resin, run 3): 64%
crude purity (method not given) (scale of the general procedure 230 grams of resin, run 4): greater than 80%
crude purity (method not given) (scale of the general procedure 230 grams of resin, run 5): greater than 85%
crude purity (method not given) (scale of the general procedure 230 grams of resin, run 6): 78%
